Assay results published in patent US6723556.
Results are given in words; binding and its absence hold for the method and conditions named. Some entries that bind do so weakly or less than the wild type.

Chains of the proteins cited; added tags and fusions are not shown. Lines headed by an entry give the natural chain unless they say otherwise; changes in a name come on top. Residues count along the entry.
UniProt Q28005, residues 27-701: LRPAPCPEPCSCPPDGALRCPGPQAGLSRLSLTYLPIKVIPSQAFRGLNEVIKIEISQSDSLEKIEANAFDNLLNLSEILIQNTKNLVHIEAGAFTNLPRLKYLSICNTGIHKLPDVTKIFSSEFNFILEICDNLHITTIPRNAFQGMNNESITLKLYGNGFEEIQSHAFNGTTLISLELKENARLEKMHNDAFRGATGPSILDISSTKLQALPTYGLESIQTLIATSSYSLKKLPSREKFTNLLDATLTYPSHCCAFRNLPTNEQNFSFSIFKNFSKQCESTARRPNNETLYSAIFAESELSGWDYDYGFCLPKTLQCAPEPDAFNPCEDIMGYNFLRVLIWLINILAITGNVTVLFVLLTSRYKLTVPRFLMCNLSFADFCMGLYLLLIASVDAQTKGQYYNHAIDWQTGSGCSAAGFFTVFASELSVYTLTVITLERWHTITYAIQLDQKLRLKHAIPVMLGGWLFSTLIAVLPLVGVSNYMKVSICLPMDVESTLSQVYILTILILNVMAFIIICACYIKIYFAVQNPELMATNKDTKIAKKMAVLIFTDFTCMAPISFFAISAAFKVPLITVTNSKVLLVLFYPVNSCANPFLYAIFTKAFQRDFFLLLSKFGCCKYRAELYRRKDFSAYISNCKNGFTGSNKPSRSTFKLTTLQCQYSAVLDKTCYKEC
UniProt P01215: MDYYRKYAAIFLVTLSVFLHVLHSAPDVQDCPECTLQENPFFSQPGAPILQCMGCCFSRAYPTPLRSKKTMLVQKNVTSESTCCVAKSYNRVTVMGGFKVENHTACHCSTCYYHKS

Molecular target: purified LH-hCG receptor of bovine corpora lutea (detergent-solubilised) (bovine) (UniProt Q28005)
Assay: affinity chromatography of the receptor on hCG coupled to Sepharose-4B

Q: How did the binding turn out when “human chorionic gonadotropin (hCG) (from UniProt P01215 25-116; P0DN86 21-165) (ligand)” was run?
A: binds
